Results are given in words; binding and its absence hold for the method and conditions named. For some of these results: In cells and extracts the contact can be indirect. Some results given as binding are weak or reduced against the parent protein; the word gives no strength. For some of these results: Where a sequence is shown, tags or fusion partners need not be part of it.
T1: PrimPol^FlagStrep (Strep-tagged human PrimPol) (human) (UniProt Q96LW4)
T1 sequence: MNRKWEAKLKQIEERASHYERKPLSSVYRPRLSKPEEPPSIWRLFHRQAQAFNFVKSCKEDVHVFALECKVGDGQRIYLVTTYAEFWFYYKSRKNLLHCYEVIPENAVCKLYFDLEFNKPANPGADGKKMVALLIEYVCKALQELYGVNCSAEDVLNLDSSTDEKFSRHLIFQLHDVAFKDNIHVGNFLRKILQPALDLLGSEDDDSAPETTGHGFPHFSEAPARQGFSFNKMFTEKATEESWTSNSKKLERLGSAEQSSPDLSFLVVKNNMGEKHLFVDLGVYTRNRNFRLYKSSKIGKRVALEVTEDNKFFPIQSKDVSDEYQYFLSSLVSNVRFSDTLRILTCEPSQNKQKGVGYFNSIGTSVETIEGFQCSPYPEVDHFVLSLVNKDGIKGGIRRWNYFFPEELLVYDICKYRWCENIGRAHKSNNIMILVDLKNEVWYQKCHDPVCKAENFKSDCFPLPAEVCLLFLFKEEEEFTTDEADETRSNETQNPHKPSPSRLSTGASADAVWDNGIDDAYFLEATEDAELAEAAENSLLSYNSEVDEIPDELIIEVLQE

Chains of the proteins cited; added tags and fusions are not shown. Lines headed by an entry give the natural chain unless they say otherwise; changes in a name come on top. Residues count along the entry.
UniProt P15927: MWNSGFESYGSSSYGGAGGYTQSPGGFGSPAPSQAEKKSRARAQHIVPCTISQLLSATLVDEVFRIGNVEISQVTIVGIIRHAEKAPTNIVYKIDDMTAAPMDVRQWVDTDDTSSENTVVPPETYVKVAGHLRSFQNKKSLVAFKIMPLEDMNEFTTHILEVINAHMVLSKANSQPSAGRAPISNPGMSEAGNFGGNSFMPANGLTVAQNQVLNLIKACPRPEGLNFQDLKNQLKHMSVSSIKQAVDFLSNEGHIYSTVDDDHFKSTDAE
RPA32C^172–270 (winged-helix domain of RPA2): residues 172-270 of P15927
UniProt P12004: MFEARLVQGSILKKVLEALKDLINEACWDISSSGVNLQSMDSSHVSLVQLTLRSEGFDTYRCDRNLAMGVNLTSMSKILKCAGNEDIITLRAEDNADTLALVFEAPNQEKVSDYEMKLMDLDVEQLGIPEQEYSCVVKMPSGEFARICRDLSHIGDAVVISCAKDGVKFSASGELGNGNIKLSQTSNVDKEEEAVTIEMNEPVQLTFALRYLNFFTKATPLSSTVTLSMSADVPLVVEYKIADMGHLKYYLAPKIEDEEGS

B1: mitochondrial single-stranded DNA binding protein (mtSSB) (protein, UniProt Q04837 17-148)
chain: ESETTTSLVLERSLNRVHLLGRVGQDPVLRQVEGKNPVTIFSLATNEMWRSGDSEVYQLGDVSQKTTWHRISVFRPGLRDVAYQYVKKGSRIYLEGKIDYGEYMDKNNVRRQATTIIADNIIFLSDQTKEKE
B2: full-length human PrimPol (recombinant) (enzyme, UniProt Q96LW4 1-560)
chain: T1 sequence

What was measured:
[1] = target: T1, PrimPol^FlagStrep (Strep-tagged human PrimPol) (human); experiment: pull-down; small-scale Strep-Tactin affinity purification of PrimPol^FlagStrep from soluble lysate of Flp-In T-REx-293 cells with or without doxycycline (10 ng/ml, 24 h), stringent washing, western blot of the elutions
[2] = target: RPA32C^172–270 (winged-helix domain of RPA2) (human) (UniProt P15927); experiment: condition: 2-fold molar excess of unlabelled PrimPol; NMR titration; 15N-1H HSQC of 15N-enriched RPA domain (50 uM RPA70N) alone and with 2-fold molar excess (100 uM) of unlabelled PrimPol construct; 25°C; 20 mM HEPES, 80 mM NaCl, 2 mM DTT, 5% deuterium oxide, pH 7.1; both purified

| binding [1] | binding [2] | Molecule |
| --- | --- | --- |
| binds |  | RPA32 (replication protein A subunit 2) (from UniProt P15927 1-270) |
| no binding |  | proliferating cell nuclear antigen (PCNA) (from UniProt P12004 1-261) |
| binds |  | B1 |
|  | no binding | B2 |

Reference: publication PMC4333378, “Human PrimPol is a highly error-prone polymerase regulated by single-stranded DNA binding proteins” (Nucleic Acids Research, 2014)
